Experimental data: patent publication US20100028360A1, “METHODS FOR THE MODULATION OF BRAIN PROGESTAGEN SIGNALING IN THE PREVENTION AND TREATMENT OF NEUROLOGICAL DISORDERS AND NEURODEGENERATIVE DISEASES” (priority 2008, published 2010)
At least one compound was matched to its structure with a doubt left.

Tests used:
hESC = experiment: EB and neuroectodermal rosette/NPC formation from hESC, morphological observation; type: cell-based, human; settings: neural induction media with P4, antagonist for 11 d (RU-486 20 μM), observed at 19 d
Procedure: (§1) FIG. 1. P4 differentiates hESC into neuroectoderm. (a) hESC were grown in TESR1 media—Li in the presence of E2 (10 nM), P4 (2 μM) or E2 (10 nM)+P4 (2 μM) for 6 d and cell proliferation measured using the trypan blue assay. Results are expressed as mean±SEM, n=3 (*p<0.05, **p<0.005 compared to 6 d control). (b) Equal amounts of protein from cell lysates of hESC treated for 9 d as described above were analyzed by immunoblot using a monoclonal antibody against nestin (clone 10C2; Chemicon, Calif., USA). (c) hESC were cultured for 4 d, enzymatically lifted and placed into EB media (containing serum) and rocked gently for an additional 4 d prior to being placed in one of two neural induction medias for an additional 11 days, where P4 was either absence or present. During this transition from EB to rosettes, colony structures treated with P4 also were treated with a PR antagonist (RU-486; 20 μM) or ER antagonist (ICI 182,780) for 11 d. At 19 d, morphological observation and molecular analysis were performed. […] (ii) hESC structure in the absence of P4. (iii) PR antagonist treated rosettes (RU-486, 20 μM). (iv) ER antagonist (ICI 182,780). (d) Equal amounts of protein from cell lysates of the above structures were analyzed by immunoblot with the monoclonal antibody against human nestin.

nestin = nestin immunoblot of hESC / EB-rosette structure lysates; type: cell-based, human; settings: for nestin expression in antagonist treated structures: antagonist for 11 d (RU-486 20 μM), immunoblot at 19 d
Procedure: as §1

Structure (SMILES): CC#C[C@]1(O)CC[C@H]2[C@@H]3CCC4=CC(=O)CCC4=C3[C@@H](c3ccc(N(C)C)cc3)C[C@@]21C [RU-486]
- EB and neuroectodermal rosette/NPC formation (hESC): No rosettes were detected
- EB and neuroectodermal rosette/NPC formation (hESC; listed as RU486): completely blocked both EB and neuroectodermal rosette/NPC formation
- nestin expression in antagonist treated structures (nestin): absence of nestin
- nestin expression in antagonist treated structures (nestin; listed as RU486): suppression of nestin expression

Structure (SMILES): C[C@]12CC[C@@H]3c4ccc(O)cc4CC[C@H]3[C@@H]1CC[C@@H]2O [E2, estradiol]
- nestin expression in hESC (nestin; hESC treated for 9 d, E2 10 nM, P4 2 μM, immunoblot): induced nestin expression (205- and 220-kDa variants), albeit at a lower level
